PubChem BioAssay AID504786 | Drosophila RNAi Screening Center – 2011
Assay: 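Positive regulators of HIF-driven reporter output in Drosophila cells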 (primary screen). Cells: Drosophila S2 cells with a stable HIF luciferase reporter. Reagents: long dsRNA against Drosophila genes, about 0.2 µg dsRNA per well of a 384-well plate. Timing: three days of knock-down, then 20 h of DFO before reading. Challenge: desferrioxamine (DFO) at 100 µM, an iron chelator that mimics hypoxia, for 20 h. Read-out: 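Firefly luciferase driven by the mouse ldh-a hypoxia-response element, measured after 20 h of 100 µM DFO; z-scores per plate, higher means more signal lost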. Reading the numbers: z-score: higher = stronger loss of HIF reporter signal.
In all, the deposit lists about 21,000 reagents; shown is a random part of those that have a named target and a result. 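Primary screen; positive scores mean lost reporter signal, so the sign may be inverted from the usual convention.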 Reagents against one gene are numbered here. Names joined by + are all predicted targets of the reagent. Not all columns of the deposit are shown.

Gene,dsRNA no.,"z-score, replicate 1","z-score, replicate 2","z-score, replicate 3"
Proc-R (GeneID 31408),1,-0.2,-0.4,
TotB (GeneID 42474),1,0.2,-0.5,
Jon74E (GeneID 39959),1,-0.3,0.5,
Mpcp1 (GeneID 37297),1,-0.3,-0.3,
CG4520 (GeneID 41902),1,-0.5,-0.6,
Mal-A2 (GeneID 35825),1,-0.3,-0.5,
Zaf1 (GeneID 41394),1,-0.3,-0.5,
Rb97D (GeneID 43231),1,-0.4,-0.2,
CG30154 (GeneID 246487),1,0.3,-0.3,
Kank (GeneID 36668),1,-0.1,-0.3,
Kank (GeneID 36668),2,-0.3,-0.4,
Vml (GeneID 5740271),1,0.2,-0.3,
Vml (GeneID 5740271),2,-0.1,0,
CG9106 (GeneID 32454),1,-0.3,-0.4,
CG14543 (GeneID 43167),1,3.1,1.1,
CG42254 (retired record) (GeneID 36644),1,-0.2,-0.3,
BtbVII (GeneID 38376),1,0.9,0,
BtbVII (GeneID 38376),2,-0.3,-0.5,
Or9a (GeneID 31975),1,-0.1,-0.5,
Mks1 (GeneID 32200),1,-0.2,0.2,
CG34462 (GeneID 5740319),1,0.1,0.8,
Dora (GeneID 50356),1,-0.4,-0.5,
Dora (GeneID 50356),2,-0.3,-0.6,
Dora (GeneID 50356),3,0.9,0,
Dora (GeneID 50356),4,0.2,-0.3,
Cpr65Ax2 + Cpr65Ax1,1,-0.3,-0.2,
Cpr65Ax2 + Cpr65Ax1,2,-0.4,-0.9,
CG13285 (GeneID 38623),1,-0.3,0.7,
bmm (GeneID 39611),1,-0.3,-0.6,
TyrRS-m (GeneID 37965),1,0.3,0.1,
Pfk (GeneID 36060),1,-0.3,-0.1,
Rcd-1r + CG13102,1,-0.3,-0.6,
CG14297 (GeneID 42260),1,-0.1,0.8,
CG6465 (GeneID 41274),1,-0.4,-0.2,
CG8508 (GeneID 41620),1,-0.3,-0.8,
CG8195 (GeneID 36725),1,-0.3,-0.4,
CG32523 (GeneID 318071),1,-0.1,-0.4,
sano (GeneID 37185),1,-0.2,-0.3,
ND-B14 (GeneID 36159),1,0.3,0.6,
hog (GeneID 318105),1,-0.3,-0.3,
Rab3 (GeneID 36127),1,-0.3,-0.2,
spn-E (GeneID 41919),1,-0.2,-0.5,
CG2993 (GeneID 40924),1,-0.3,-0.6,
CG2993 (GeneID 40924),2,-0.1,0.2,
Spn38F (GeneID 49806),1,-0.3,-0.5,
Nse4 (GeneID 34434),1,-0.2,-0.3,
CG15701 (GeneID 36801),1,-0.3,-0.4,
Fim (GeneID 32721),1,-0.4,-0.8,
CG14346 (GeneID 33325),1,-0.2,0,
Pkg21D (GeneID 33253),1,-0.2,-0.2,
CG13708 (GeneID 38582),1,-0.3,-0.5,
CG7518 (GeneID 41599),1,-0.3,-0.1,
Pop1 (GeneID 31475),1,-0.1,-0.1,
Sgp (GeneID 34188),1,-0.3,-0.1,
Him (GeneID 32801),1,-0.4,0.3,
CG34039 (GeneID 3885643),1,0.4,0,
CRIF (GeneID 40395),1,1.1,1.4,
unpg (GeneID 35942),1,-0.4,-0.4,
CG17752 (GeneID 42337),1,-0.3,-0.5,
fd102C (GeneID 43843),1,-0.4,-0.3,
SkpC (GeneID 32996),1,-0.3,-0.1,
Hs6st (GeneID 42380),1,0.8,0.1,
Hs6st (GeneID 42380),2,-0.6,-0.6,
Hs6st (GeneID 42380),3,0.1,-0.7,-0.6
exu (GeneID 37345),1,-0.3,-0.5,
CG18605 (GeneID 37189),1,-0.2,0.3,
CG16970 (retired record) (GeneID 34740),1,0.1,-0.5,
CG16970 (retired record) (GeneID 34740),2,-0.3,-0.5,
CG10465 (GeneID 35488),1,0,-0.5,
IntS1 (GeneID 37840),1,0.8,0.5,
CG5107 (GeneID 43084),1,-0.4,-0.2,
mtd (GeneID 45467),1,-0.4,-0.6,
mtd (GeneID 45467),2,-0.4,-0.5,
mtd (GeneID 45467),3,-0.4,1,
kel (GeneID 35084),1,-0.1,-0.4,
CG16815 (GeneID 34725),1,-0.4,0.5,
CG12708 (GeneID 32502),1,-0.3,-0.4,
Axs (GeneID 32645),1,-0.1,-0.4,
CG2747 (GeneID 40950),1,0.1,0.1,
MFS18 (GeneID 33650),1,-0.2,0,
su(r) (GeneID 31858),1,-0.4,-0.1,
Pex11c (GeneID 42751),1,-0.4,-0.6,
SmydA-1 (GeneID 36581),1,-0.4,-1.1,
